# Laboratory results as given in PubChem BioAssay AID485349 (National Center for Advancing Translational Sciences (NCATS), 2010).
# The campaign covered roughly 320,000 compounds. About 620 (0.19%) were called active. The call rests on the fitted dose curve; in most records, active means well fitted activation curve with a large enough effect; inconclusive means small, poorly fitted or top-dose-only effect; inactive means no such curve, though single readings can be large or run the other way. The list shows a part of the results, in another mix than the full data. Entries without a call were filed so in the source.
# Assay: qHTS Assay for Identifying a Potential Treatment of Ataxia-Telangiectasia; further: nearly all actives have a fitted effect of over 45% in size; on activation: % of control where 0% means no effect
# Details: […] A-T fibroblasts, KAP-1 phosphorylation AlphaLISA, neocarzinostatin DNA damage 30 min before lysis; activation: at 57.5 µM (top of the series)
# Text: NIH Chemical Genomics Center [NCGC] NIH Molecular Libraries Probe Centers Network [MLPCN] MLPCN Grant: MH089030-01 Assay Submitter (PI): Wei Zheng and Yosef Shiloh Ataxia-telangiectasia (A-T) is a devastating and progressive disease for which, there is no cure. Although A-T is a multisystem disease, it is stereotyped characterized by its neurological symptoms such as truncal ataxia, due to cerebellar cortical degeneration of the Purkinje and granule cells. Other symptoms of A-T are telangiectasias (dilated blood vessels), primary immunodeficiency, marked sensitivity to ionizing radiation (IR), chromosomal instability and predisposition to cancer. The underlying genetic cause of A-T is null mutations in the ATM (A-T mutated) gene. ATM is a nuclear serine/threonine kinase that functions as a master regulator of the cellular responses to double strand breaks (DSBs) in the DNA. Upon activation by DSBs, ATM phosphorylates a plethora of down stream targets, including KAP-1 on […]. KAP-1 phosphorylation occurs shortly in response to DSBs and mediates global chromatin relaxation, which facilitates DSB repair. To screen for small molecules that will compensate for the loss of ATM in cells derived from A-T patients, we monitored KAP-1 phosphorylation as a readout for ATM-like activity using an AlphaLISA assay.
# qHTS Assay Protocol: Step,Parameter,Value,Description 1. Cell Plating, 3 ul, 500 cells/well in OPTI-MEM, 1% FBS, 1% Pen/Strep 2. Incubation, 16-24 hr, 37C, 5% CO2, 95% humidity 3. Library compounds, 23 nl, 76.7 - 0.61uM dilution series final concentration 4. Incubation, 60 min, 37C, 5% CO2, 95% humidity 5. Reagent, 1 ul, 1600 ng/ml NCS in PBS + 0.05% BSA + 0.005% Tween 20 6. Incubation, 30 min, 37C, 5% CO2, 95% humidity 7. Reagent, 1 ul, Premixed detection reagents and lysis buffer 8. Reagent, 1 ul, 0.6% Antifoam A 9. Incubation, 6 hr, 25C, 95% humidity 10. Readout, EnVision, EnVision plate reader. AlphaScreen 1536-well protocol Cells were plated using medium-binding white solid-bottom tissue culture treated Kalypsys plates. Multidrop dispense of 3 uL of […] (hTERT immortalized A-T patient fibroblast cells). Detection reagent and lysis buffer was 3.75nM Rab-a-pKAP1 antibody bound to 75 ng/ul AlphaScreen SA donor bead, 3.75 nM Biot-M-a-KAP1 antibody bound to AlphaLISA protein A acceptor bead, 0.5x protease inhibitor cocktail and 0.25x PerkinElmer lysis buffer. EnVision protocol for 1536-well AlphaScreen read (30ms excitation, 100ms read), about 10 min/plate.
# Potency means the concentration at half of the fitted maximal effect.
SMILES,activation,Potency
CCOC(=O)N1C(=O)[C@](c2ccc(Cl)cc2)(C(C)C)N1C(=O)OCC,inactive: 26.3%,–
COC(=O)c1cccc2c1-c1ccccc1/C2=N\NC(N)=O,73.3%,–
COc1ccc(CCNC(=O)C2CCN(S(=O)(=O)c3ccc(OC)c(OC)c3)CC2)cc1OC,66.7%,–
O=C(Nc1ccc([N+](=O)[O-])cc1)c1cc2ccccc2nc1Cl,-27.3%,–
O=C(c1nn2c(C(F)(F)F)cc(-c3ccc(F)cc3)nc2c1Cl)N1CCOCC1,2.8%,–
COc1cccc(CN(C)CC(=O)NCc2ccc(F)cc2)c1OC,106%,–
CCOC(=O)c1cnc2c(C)c(Cl)ccc2c1NCCCN1CCOCC1,inactive: -36.3%,–
O=C(O)c1cc(-c2ccco2)nc2ccc(Br)cc12,inactive: -5.8%,–
Cc1nc(Nc2ccc(Cl)cc2)c2oc3ccccc3c2n1,88.2%,–
C[C@@H](NC(=O)OC(C)(C)C)C(=O)NCC1CCC(C(=O)N[C@@H](Cc2ccccc2)C(=O)O)CC1 (stereo partly specified),inactive: 8.48%,–
CC(C)NC(=O)c1ccc(COc2ccc(C(C)(C)C)cc2)o1,56.8%,–
Cc1ccccc1OCC(=O)Nc1cccc(C(=O)O)c1,149%,–
O=C(c1ccc(F)cc1)c1ccc(N2CCCCC2)cc1,60.9%,–
Cc1cc(/C=C(/C#N)C(=O)O)c(C)n1CCC(C)C,inactive: -2.35%,–
Cc1cc(C(=O)N2CCN(S(C)(=O)=O)CC2)sc1-c1ccccc1,inactive: 4.51%,–
O=C(c1ccccc1)c1coc2ccc(O)c(Cl)c12,inactive: -9.83%,–

SMILES,activation,Potency
O=c1c(-c2ccc(Cl)cc2)c[nH]n1-c1ccccc1,60%,–
COc1ccc(NC(=O)C2CC2)cc1OC1CCCC1,69.1%,–
COc1ccc(Cl)cc1NC(=O)CN(C)C(=O)c1sccc1-c1ccccc1,inactive: -8.21%,–
Cc1ccc(C(=O)NCCc2c[nH]c3ccccc23)c(C)c1,–,active: 25.1 µM
COc1cccc(C2C(C(N)=O)=C(C)Nc3nc(CCCO)nn32)c1 (stereo unspecified),143%,–
CNC(=O)c1ccc(-c2cc3onc(-c4ccccc4)c3c(=O)n2C)cc1,0.653%,–
C[C@@H]1Cc2c(O)c(O)cc(O)c2C(=O)O1,-59.5%,–
CC(C)(C)NC(=O)c1cccc2c1-c1ccccc1C2=O,68.6%,–
CNC(=O)Cc1csc2ccc(C)cc12,64%,–
O=C(NC1CCS(=O)(=O)C1)/C(=C/c1ccco1)NC(=O)c1ccccc1 (stereo unspecified),inactive: 8.41%,–
CCOC(=O)Cn1c(-c2ccccc2)cc(SC)c(C#N)c1=O,80%,–
CC(Oc1ccccc1)C(=O)Nc1cccc(NC(=O)c2ccco2)c1 (stereo unspecified),82.8%,–
COc1ccc(Nc2cc3n(c(=O)n2)CCc2cc(OC)c(OC)cc2-3)cc1,70.7%,–
CCOc1ccc(NC2=CC(=O)CCC2)cc1,54.5%,–
CCCc1cc(C(=O)Nc2ccccc2SC)no1,–,active: 39.8 µM

# A few values from the entries so far.
# COc1cccc(C2C(C(N)=O)=C(C)Nc3nc(CCCO)nn32)c1 (stereo unspecified) – activation: 143%
# CNC(=O)Cc1csc2ccc(C)cc12 – activation: 64%
